# Measured data: PubChem BioAssay AID1159578 (Peter MacCallum Cancer Centre, 2015)
# Test: 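siRNA pools altering how lymphatic endothelial cells close a scratch wound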 (primary screen)
# Cells: human lymphatic endothelial cells
# Knock-down reagent: siRNA pool against human genes, 40 nM
# Time to read-out: 48 h after transfection
# Measured: 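Cells stained with dye and imaged after a scratch; covered wound area and nuclei counted, duplicates averaged, migration set against mock wells and turned into a robust z-score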
# Direction: migration robust z-score: higher = faster migration into the scratch; migration relative to mock: higher = more scratch area covered than mock; nuclei per well: higher = more cells in the well
# Active means: 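Migration changed when robust z exceeds 2 or falls below -2 and mean nuclei number is at least 3300; otherwise not called changed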
# Calls: active = migration changed; inactive = no migration change, or too few cells
# Here is an unselected part of about 18,000 reagents tested. Over the whole deposit, about 1,030 (5.7%) are marked active. 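Inactive calls also include pools with fewer than 3300 nuclei, whose migration was not assessed.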 The raw values are shown without normalisation. No sequences are given here.
gene symbol,PubChem SID,migration robust z-score,migration class with cell-count check,migration relative to mock,"nuclei per well, duplicate mean",outcome
RTP1 (receptor transporter protein 1),SID255362913,0.66,migration z between -2 and 2; enough cells,1.05,5373,inactive
DNAH7 (dynein axonemal heavy chain 7),SID255359045,0.18,migration z between -2 and 2; enough cells,0.84,5579,inactive
C19orf18 (chromosome 19 open reading frame 18),SID255363332,0.11,migration z between -2 and 2; enough cells,0.91,5866,inactive
MS4A6E (membrane spanning 4-domains A6E),SID255364370,-0.06,migration z between -2 and 2; enough cells,0.87,6121,inactive
TBX10 (T-box transcription factor 10),SID255365235,0.74,migration z between -2 and 2; enough cells,1.08,6179,inactive
"AHSA2P (activator of HSP90 ATPase homolog 2, pseudogene)",SID255362880,1.46,migration z between -2 and 2; enough cells,1.26,6490,inactive
G0S2 (G0/G1 switch 2),SID255357325,-0.23,migration z between -2 and 2; enough cells,0.82,5422,inactive
ZNF714 (zinc finger protein 714),SID255363369,-0.88,migration z between -2 and 2; enough cells,0.66,6294,inactive
CIAO2A (cytosolic iron-sulfur assembly component 2A),SID255361237,0.05,migration z between -2 and 2; enough cells,0.9,6096,inactive
CACNA1S (calcium voltage-gated channel subunit alpha1 S),SID255348653,-0.26,migration z between -2 and 2; enough cells,0.76,5026,inactive
CD244 (CD244 molecule),SID255357882,-0.45,migration z between -2 and 2; enough cells,0.76,6283,inactive
ZNF573 (zinc finger protein 573),SID255362693,0.97,migration z between -2 and 2; enough cells,1.14,5557,inactive
DDHD1 (DDHD domain containing 1),SID255360822,0.16,migration z between -2 and 2; enough cells,0.84,6207,inactive
ATG16L2 (autophagy related 16 like 2),SID255361748,-0.48,migration z between -2 and 2; enough cells,0.76,5658,inactive
"GIMAP4 (GTPase, IMAP family member 4)",SID255358584,-0.03,migration z between -2 and 2; enough cells,0.87,5511,inactive
COL9A3 (collagen type IX alpha 3 chain),SID255349021,0.18,migration z between -2 and 2; enough cells,0.94,4668,inactive
"CLN3 (CLN3 lysosomal/endosomal transmembrane protein, battenin)",SID255348965,-0.62,migration z between -2 and 2; enough cells,0.72,5555,inactive
PBLD (phenazine biosynthesis like protein domain containing),SID255359815,0.02,migration z between -2 and 2; enough cells,0.89,6142,inactive
PPFIA4 (PPFI scaffold protein A4),SID255353593,0.05,migration z between -2 and 2; enough cells,0.82,5983,inactive
CD3E (CD3 epsilon subunit of T-cell receptor complex),SID255348752,-1.72,migration z between -2 and 2; enough cells,0.44,4421,inactive
TMPPE (transmembrane protein with metallophosphoesterase domain),SID255366086,0.13,migration z between -2 and 2; enough cells,0.92,6222,inactive
PRMT8 (protein arginine methyltransferase 8),SID255359079,0.02,migration z between -2 and 2; enough cells,0.81,5906,inactive
ZNF597 (zinc finger protein 597),SID255363281,0.46,migration z between -2 and 2; enough cells,1.01,5266,inactive
PIMREG (PICALM interacting mitotic regulator),SID255358035,0.14,migration z between -2 and 2; enough cells,0.92,5788,inactive
HTR1B (5-hydroxytryptamine receptor 1B),SID255350354,-0.88,migration z between -2 and 2; enough cells,0.64,6654,inactive
PPP1R15A (protein phosphatase 1 regulatory subunit 15A),SID255356389,2.38,migration z above 2; enough cells,1.5,6199,active
SEC61A1 (SEC61 translocon subunit alpha 1),SID255357221,0.79,migration z between -2 and 2; enough cells,1.09,5670,inactive
ATP23,SID255361913,2.12,migration z above 2; enough cells,1.21,5723,active
GBP5 (guanylate binding protein 5),SID255362308,1.86,migration z between -2 and 2; enough cells,1.37,4935,inactive
SIDT1 (SID1 transmembrane family member 1),SID255358208,-0.66,migration z between -2 and 2; enough cells,0.72,5496,inactive
XAGE3 (X antigen family member 3),SID255363909,-4.31,under 3300 nuclei; migration not judged,-0.26,507,inactive
ZNF439 (zinc finger protein 439),SID255361845,0.24,migration z between -2 and 2; enough cells,0.94,5622,inactive
ARHGAP45 (Rho GTPase activating protein 45),SID255356301,-0.36,migration z between -2 and 2; enough cells,0.74,4192,inactive
SSPN (sarcospan),SID255353385,-1.46,migration z between -2 and 2; enough cells,0.5,5495,inactive
NKPD1 (NTPase KAP family P-loop domain containing 1),SID255364769,-0.48,migration z between -2 and 2; enough cells,0.76,5960,inactive
KRTAP20-1 (keratin associated protein 20-1),SID255364971,-1.04,migration z between -2 and 2; enough cells,0.61,5392,inactive
RANGAP1 (Ran GTPase activating protein 1),SID255352038,1.62,migration z between -2 and 2; enough cells,1.31,5830,inactive
DUSP4 (dual specificity phosphatase 4),SID255349396,0.96,migration z between -2 and 2; enough cells,0.99,6652,inactive
"ACP6 (acid phosphatase 6, lysophosphatidic)",SID255357560,1.04,migration z between -2 and 2; enough cells,1,6690,inactive
DDX59 (DEAD-box helicase 59),SID255361011,0.29,migration z between -2 and 2; enough cells,0.86,5470,inactive
CNMD (chondromodulin),SID255355559,-1.27,migration z between -2 and 2; enough cells,0.55,6108,inactive
MYNN (myoneurin),SID255358938,-0.68,migration z between -2 and 2; enough cells,0.71,6072,inactive
STK26 (serine/threonine kinase 26),SID255357895,-0.52,migration z between -2 and 2; enough cells,0.7,3911,inactive
"ASAP2 (ArfGAP with SH3 domain, ankyrin repeat and PH domain 2)",SID255353868,0.18,migration z between -2 and 2; enough cells,0.94,5998,inactive
ULBP3 (UL16 binding protein 3),SID255360294,0.76,migration z between -2 and 2; enough cells,1.08,5130,inactive
NCKAP1 (NCK associated protein 1),SID255355353,0.22,migration z between -2 and 2; enough cells,0.94,5688,inactive
CAPRIN2 (caprin family member 2),SID255360118,1.52,migration z between -2 and 2; enough cells,1.27,5812,inactive
MTMR12 (myotubularin related protein 12),SID255358078,-0.1,migration z between -2 and 2; enough cells,0.86,4264,inactive
EPHA6 (EPH receptor A6),SID255364832,-2.36,migration z below -2; enough cells,0.35,4648,active
FECH (ferrochelatase),SID255349658,-0.96,migration z between -2 and 2; enough cells,0.62,4994,inactive
LRRC25 (leucine rich repeat containing 25),SID255362707,0.5,migration z between -2 and 2; enough cells,1.02,5998,inactive
CYLD (CYLD lysine 63 deubiquitinase),SID255349192,-1.01,migration z between -2 and 2; enough cells,0.61,4728,inactive
STK24 (serine/threonine kinase 24),SID255353544,0.44,migration z between -2 and 2; enough cells,0.89,4354,inactive
GPHN (gephyrin),SID255354929,-0.22,migration z between -2 and 2; enough cells,0.83,7115,inactive
HAND1 (heart and neural crest derivatives expressed 1),SID255354264,-0.57,migration z between -2 and 2; enough cells,0.7,5922,inactive
COL4A3 (collagen type IV alpha 3 chain),SID255349007,0.26,migration z between -2 and 2; enough cells,0.96,6570,inactive
GUCA1B (guanylate cyclase activator 1B),SID255350101,-0.1,migration z between -2 and 2; enough cells,0.78,5186,inactive

Laid out differently: entries from further up.
COL9A3 (collagen type IX alpha 3 chain) [SID255349021]: migration robust z-score = 0.18; migration class with cell-count check = migration z between -2 and 2; enough cells; migration relative to mock = 0.94; nuclei per well, duplicate mean = 4668; outcome = inactive
CLN3 (CLN3 lysosomal/endosomal transmembrane protein, battenin) [SID255348965]: migration robust z-score = -0.62; migration class with cell-count check = migration z between -2 and 2; enough cells; migration relative to mock = 0.72; nuclei per well, duplicate mean = 5555; outcome = inactive
PBLD (phenazine biosynthesis like protein domain containing) [SID255359815]: migration robust z-score = 0.02; migration class with cell-count check = migration z between -2 and 2; enough cells; migration relative to mock = 0.89; nuclei per well, duplicate mean = 6142; outcome = inactive
PPFIA4 (PPFI scaffold protein A4) [SID255353593]: migration robust z-score = 0.05; migration class with cell-count check = migration z between -2 and 2; enough cells; migration relative to mock = 0.82; nuclei per well, duplicate mean = 5983; outcome = inactive
CD3E (CD3 epsilon subunit of T-cell receptor complex) [SID255348752]: migration robust z-score = -1.72; migration class with cell-count check = migration z between -2 and 2; enough cells; migration relative to mock = 0.44; nuclei per well, duplicate mean = 4421; outcome = inactive
TMPPE (transmembrane protein with metallophosphoesterase domain) [SID255366086]: migration robust z-score = 0.13; migration class with cell-count check = migration z between -2 and 2; enough cells; migration relative to mock = 0.92; nuclei per well, duplicate mean = 6222; outcome = inactive
